# Reference: PubChem BioAssay AID504808 (Drosophila RNAi Screening Center, 2011)
# Screen: 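Genes whose loss lifts activity of an E2F-responsive reporter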 (primary screen)
# Cell system: Drosophila S2 cells
# Reagent: long dsRNA against Drosophila genes
# Measured: 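Firefly luciferase driven by E2F sites, normalised to Renilla luciferase on the same minimal promoter, measured by plate reader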
# Direction: E2F firefly: higher = more E2F reporter activity; Renilla normaliser: higher = more normaliser reporter signal
# Call rule: 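Called active if the normalised E2F reporter went up by over 50%; the cutoff is arbitrary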
# In all, the deposit lists about 21,000 reagents; this is an unselected part of those with a known target gene and a result. Of all reagents, 18 (0.084%) were called active. 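Raw counts without plate normalisation, one of two replicates; the ratio scores behind the calls were not deposited.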 Names joined by + are all predicted targets of the reagent. Not given: the amount of reagent, the time to read-out.
predicted target,PubChem SID,"E2F firefly, rep 1","Renilla normaliser, rep 1",Call
upd2 (GeneID 32805),SID104199761,1.11e5,5207,inactive
DptA (GeneID 37183),SID104187196,1.47e5,5209,inactive
CG42613 (GeneID 42269),SID104193124,90235,2696,inactive
CG42613 (GeneID 42269),SID104194561,98702,5566,inactive
CG42613 (GeneID 42269),SID104195594,85471,5663,inactive
CR42546 (GeneID 8674079),SID104183503,1.00e5,4942,inactive
CG11334 (GeneID 43713),SID104193858,72733,2599,inactive
CG11334 (GeneID 43713),SID104194094,55795,4173,inactive
CG42615 (GeneID 8674036),SID104184913,1.36e5,5521,inactive
CG17272 (GeneID 42465),SID104195003,1.21e5,7718,inactive
CG3626 (GeneID 31377),SID104198110,45343,3494,inactive
Ude (GeneID 42953),SID104195116,72428,3058,inactive
Sr-CI (GeneID 33621),SID104180582,53729,3711,inactive
fusl (GeneID 33765),SID104182143,69293,3434,inactive
CG3045 (GeneID 37531),SID104184123,79466,3673,inactive
HisT (GeneID 35697),SID104184843,1.44e5,5388,inactive
HisT (GeneID 35697),SID104184844,1.37e5,5543,inactive
HisT (GeneID 35697),SID104186197,3047,130,inactive
mRpL13 (GeneID 35145),SID104181868,1.05e5,4626,inactive
udt (GeneID 42809),SID104194006,1.31e5,6687,inactive
AANATL4 (GeneID 37213),SID104186566,1.57e5,5083,inactive
GstD6 (GeneID 48339),SID104196479,1.48e5,7155,inactive
CG42540 (GeneID 38562),SID104188119,59860,3180,inactive
CG42540 (GeneID 38562),SID104188120,75157,3200,inactive
CG42540 (GeneID 38562),SID104188385,74372,3033,inactive
Ssl2 (GeneID 43424),SID104194187,1.11e5,5634,inactive
L (GeneID 36609),SID104186458,1.03e5,4583,inactive
L (GeneID 36609),SID104186460,1.01e5,4019,inactive
TM9SF4 (GeneID 34778),SID104181680,93013,3633,inactive
TM9SF4 (GeneID 34778),SID104182329,96743,4416,inactive
Srp14 (GeneID 42436),SID104195589,1.41e5,6897,inactive
CG32625 (GeneID 318128),SID104198786,92958,2751,inactive
Dfd (GeneID 40832),SID104192385,1.57e5,7533,inactive
Ir67a (GeneID 39110),SID104189689,1.39e5,7740,inactive
homer (GeneID 33944),SID104183339,92819,3520,inactive
GCC88 (GeneID 41350),SID104194056,1.38e5,6381,inactive
MrgBP (GeneID 35880),SID104186209,1.66e5,4819,inactive

A stretch of the results above:
predicted target,PubChem SID,"E2F firefly, rep 1","Renilla normaliser, rep 1",Call
Ude (GeneID 42953),SID104195116,72428,3058,inactive
Sr-CI (GeneID 33621),SID104180582,53729,3711,inactive
fusl (GeneID 33765),SID104182143,69293,3434,inactive
CG3045 (GeneID 37531),SID104184123,79466,3673,inactive
HisT (GeneID 35697),SID104184843,1.44e5,5388,inactive
HisT (GeneID 35697),SID104184844,1.37e5,5543,inactive

Further results follow.
predicted target,PubChem SID,"E2F firefly, rep 1","Renilla normaliser, rep 1",Call
Rh4 + sina,SID104191188,77015,4046,inactive
Sprn (GeneID 39344),SID104189924,1.34e5,7178,inactive
dob (GeneID 32436),SID104199740,8221,848,inactive
Ranbp21 (GeneID 32970),SID104199239,1.32e5,5989,inactive
Diedel3 (GeneID 50358),SID104199336,1.44e5,7516,inactive
CG34232 (GeneID 5740195),SID104185124,1.26e5,5213,inactive
ATP8B (GeneID 41469),SID104194753,1.38e5,6387,inactive
DUBAI (GeneID 36361),SID104187073,2591,188,inactive
DCTN2-p50 (GeneID 44086),SID104186924,3207,209,inactive
cGlr1 (GeneID 36744),SID104186062,1.38e5,4985,inactive
CG14854 (GeneID 41761),SID104194770,1.17e5,6925,inactive
CG14340 (GeneID 33287),SID104180162,1.47e5,5759,inactive
Cyp313a3 (GeneID 41488),SID104196418,1.52e5,6211,inactive
CG30037 (GeneID 246409),SID104187097,1.12e5,3800,inactive
CG13280 (GeneID 35015),SID104182045,90169,4550,inactive
Vps51 (GeneID 37156),SID104186311,74794,3862,inactive
CG9389 (GeneID 40347),SID104191649,82003,3533,inactive
Irc (GeneID 42049),SID104196246,63165,3802,inactive
CG14312 (GeneID 42195),SID104194583,1.37e5,6833,inactive
UGP (GeneID 39065),SID104190203,74748,3467,inactive
CG13562 (GeneID 37797),SID104183992,98150,3872,inactive
Lerp (GeneID 43223),SID104194542,1.22e5,5294,inactive
Lerp (GeneID 43223),SID104194543,1.09e5,5385,inactive
Lerp (GeneID 43223),SID104195822,1.15e5,6093,inactive
Lerp (GeneID 43223),SID104195823,1.21e5,6292,inactive
ZnT49B (GeneID 36393),SID104187017,93012,3907,inactive
CG14074 (GeneID 40051),SID104189871,1.53e5,7966,inactive
magu (GeneID 36048),SID104186624,2835,202,inactive
sktl (GeneID 37356),SID104184507,70088,3621,inactive
CG8728 (GeneID 35748),SID104187043,3922,196,inactive
Sys1 (GeneID 41023),SID104194164,1.35e5,6756,inactive
Indy (GeneID 40049),SID104190185,74103,4200,inactive
CG17780 (GeneID 42914),SID104195057,1.05e5,5671,inactive
Osi6 (GeneID 40760),SID104191920,1.22e5,7071,inactive
Argp (GeneID 261628),SID104196302,1.21e5,6641,inactive
CycJ (GeneID 38428),SID104188445,68470,3340,inactive
snz (GeneID 31704),SID104197761,55724,3631,inactive
CG15653 (GeneID 37388),SID104184036,1.02e5,3555,inactive
crm (GeneID 31268),SID104198546,2068,884,inactive
Gagr (GeneID 39824),SID104190233,84505,3876,inactive
Eaat1 (GeneID 34251),SID104183113,1.67e5,5255,inactive
Obp99c (GeneID 43494),SID104196054,1.26e5,5658,inactive
PICK1 (GeneID 34677),SID104182728,1.08e5,4127,inactive
Fis1 (GeneID 49892),SID104187564,93363,4256,inactive
Fas1 (GeneID 42025),SID104196461,1.23e5,5966,inactive
Mst98Ca (GeneID 47854),SID104196541,1704,976,inactive
CG12934 (GeneID 36124),SID104186039,1.38e5,4402,inactive
